From PubChem BioAssay AID540256 (National Center for Advancing Translational Sciences (NCATS), 2011)
About 3,700 (1.2%) of roughly 300,000 compounds were called active. Inconclusive means that the source gave no clear call. Such entries were picked first, then a sample of the others. Calls come from the whole dose curve; tested in HEK293 cells. Where the call is inconclusive, the potency comes from a doubtful curve fit.

Assay: qHTS for Inhibitors of binding or entry into cells for Lassa Virus; note: nearly all actives have a fitted effect of over 50% in size
Details: Lassa virus pseudotype entry inhibition, cell reporter; series mostly up to 37.9 µM
Potency is the fitted concentration of half-maximal effect.

**Q.** Which Potency does the source give for COc1ccccc1OCc1ccc(C(=O)NC(C)c2ccccc2)o1 (centres undefined) here?
**A.** inconclusive: 11.2 µM [inhibitor, partial curve]

**Q.** Which Potency does the source give for COc1ccc(NC(=O)C(=O)N/N=C(\C)CC(=O)Nc2cc(C)ccn2)c(OC)c1 here?
**A.** inactive

**Q.** Which Potency does the source give for CCC(C)NC(=O)c1nn(-c2ccc(C)cc2)nc1CO (centres undefined) here?
**A.** inactive

**Q.** For CC1CCCC(C)N1C(=O)CSCc1ccc(Cl)cc1 (centres undefined), which Potency is on record?
**A.** inconclusive: 16.4 µM [activator, single point]

**Q.** Which Potency does the source give for CCOC(=O)N1CCN(c2cc(N(C)CCO)c([N+](=O)[O-])c3nonc23)CC1 here?
**A.** inactive

**Q.** Which Potency does the source give for CC(=NCC1CCCO1)c1c(O)n(-c2ccc(Cl)cc2)c(=O)[nH]c1=O (centres undefined) here?
**A.** inconclusive: 20.6 µM [inhibitor, partial curve, poor fit]

**Q.** Which Potency does the source give for CC1=CCC2C(=O)N(c3nc4ccccc4n3C)C(=O)C2C1 (centres undefined) here?
**A.** inactive

**Q.** Which Potency does the source give for Cc1c(-c2ccccc2)nc2ccccc2c1C(=O)Oc1ccc([N+](=O)[O-])cc1 here?
**A.** inconclusive: 12.6 µM [inhibitor, partial curve, poor fit]

**Q.** Which Potency does the source give for O=C(Nc1ccc(F)c(Cl)c1)c1ccc2c(c1)OCO2 here?
**A.** inactive

**Q.** Which Potency does the source give for CCOC(=O)c1c(S(=O)(=O)NCC(=O)Nc2cc(C)ccn2)c(C)n(C)c1C here?
**A.** inconclusive: 35.5 µM [activator, single point]

**Q.** For CC12C(=O)N(c3cccc(OC(=O)c4ccco4)c3)C(=O)C1C1c3ccccc3C2c2ccccc21 (centres undefined), which Potency is on record?
**A.** inconclusive: 16.4 µM [inhibitor, single point]

**Q.** For COc1ccc(OC(=O)c2nc(SCc3ccccc3F)ncc2Cl)cc1, which Potency is on record?
**A.** inactive

**Q.** For COC(=O)[C@@H]1CC[C@H](C)[C@@H](c2ccc(C)cc2)N1C(=O)c1ccc(/C=N/O[C@H](C)c2cn([C@@H]3COC[C@H]3O)nn2)cc1, which Potency is on record?
**A.** inconclusive: 13 µM [inhibitor, partial curve]

**Q.** For Clc1cccc2sc(N3CCCCC3)nc12, which Potency is on record?
**A.** inactive

**Q.** With COc1ccc(NC(=O)Cc2cccc(F)c2)cc1S(=O)(=O)Nc1ccccc1Cl as the molecule, how does the Potency read?
**A.** inconclusive: 11.2 µM [inhibitor, partial curve, poor fit]

**Q.** For COc1ccccc1C(=O)Nc1cccc(C(=O)OCc2cc(=O)n3ccsc3n2)c1, which Potency is on record?
**A.** inactive

**Q.** For COc1ccc(CN2C(=O)CN(C3CCCCCC3)C(=O)C2c2ccc(F)cc2)cc1 (centres undefined), which Potency is on record?
**A.** inconclusive: 25.9 µM [inhibitor, single point]

**Q.** With Cn1c(COc2ccccc2)nnc1SCCSc1nnc(COc2ccccc2)n1C as the molecule, how does the Potency read?
**A.** inactive

**Q.** For CCOc1ccc(CCNC(=O)C2CCN(S(=O)(=O)c3ccc(C)cc3)CC2)cc1OCC, which Potency is on record?
**A.** inconclusive: 0.794 µM [inhibitor, single point]

**Q.** Which Potency does the source give for c1coc(CN2CCN(C(c3cccs3)c3nnnn3C3CCCC3)CC2)c1 (centres undefined) here?
**A.** inconclusive: 7.3 µM [inhibitor, partial curve]

**Q.** Which Potency does the source give for CCOC(=O)c1cccc(NC(=O)CN(c2ccc(C)cc2)S(=O)(=O)c2c(C)n[nH]c2C)c1 here?
**A.** inconclusive: 5.01 µM [inhibitor, partial curve, poor fit]

**Q.** With Cc1ccc(Cn2ccnc2SCC(=O)NCc2ccccc2Cl)cc1 as the molecule, how does the Potency read?
**A.** inconclusive: 6.31 µM [activator, single point]

**Q.** For O=C(NC(=S)NC(c1ccccc1)c1ccncc1)c1ccccc1 (centres undefined), which Potency is on record?
**A.** inconclusive: 6.31 µM [inhibitor, partial curve, poor fit]

**Q.** Which Potency does the source give for CCOC(=O)c1ccc(N2C(=O)c3n[nH]c(-c4ccco4)c3C2c2cccc(OC)c2)cc1 (centres undefined) here?
**A.** inconclusive: 35.5 µM [inhibitor, single point]

**Q.** With CC1CCN(CCOCCOc2ccccc2-c2ccccc2)CC1 as the molecule, how does the Potency read?
**A.** inconclusive: 11.2 µM [inhibitor, partial curve, poor fit]

**Q.** For CC(=O)Nc1cccc(OCc2cccc([N+](=O)[O-])c2)c1, which Potency is on record?
**A.** inactive

**Q.** With Cc1ccc2[nH]c(=O)c(CN(Cc3ccc4c(c3)OCO4)Cc3nnnn3C3CCCC3)cc2c1 as the molecule, how does the Potency read?
**A.** active: 3.55 µM

**Q.** With COc1ccc(Cl)cc1S(=O)(=O)NCc1ccc2c(c1)CCN2C(=O)c1cccc(C)c1 as the molecule, how does the Potency read?
**A.** inconclusive: 12.6 µM [inhibitor, partial curve, poor fit]

**Q.** With CC(C)c1ccc(C2NC(=O)c3n[nH]c(-c4cccs4)c32)cc1 (centres undefined) as the molecule, how does the Potency read?
**A.** inactive

**Q.** With CCn1c(=N)c(C(=O)NCc2ccccc2)cc2c(=O)n3cccc(C)c3nc21 as the molecule, how does the Potency read?
**A.** inconclusive: 6.31 µM [activator, full curve, poor fit]

**Q.** With CCN1CCN(c2ccc(S(=O)(=O)N3CCOCC3)cc2NC(=O)/C=C/c2ccc(OC)cc2OC)CC1 as the molecule, how does the Potency read?
**A.** inactive

**Q.** For CCOC(=O)Cc1csc(NC(=O)c2ccc(S(=O)(=O)N3CCOCC3)cc2)n1, which Potency is on record?
**A.** inactive

**Q.** For CC1(C)CCC(=O)N(c2ccccc2)C1=O, which Potency is on record?
**A.** inconclusive: 31.6 µM [activator, single point]

**Q.** For COc1ccc(-n2nnnc2C2CCN(S(=O)(=O)c3ccc(NC(C)=O)cc3)CC2)cc1, which Potency is on record?
**A.** inactive

**Q.** For Cc1cc(NC(=O)c2ccc(COc3ccccc3Cl)o2)no1, which Potency is on record?
**A.** inactive

**Q.** For CCN(C(=O)COC(=O)/C(C#N)=C/c1cc(C)n(CCOC)c1C)c1c(N)n(Cc2ccccc2)c(=O)[nH]c1=O, which Potency is on record?
**A.** inactive

**Q.** With O=C(Nc1ccccc1)c1c(O)c2c(n(Cc3ccco3)c1=O)CCCC2 as the molecule, how does the Potency read?
**A.** inconclusive: 11.2 µM [activator, single point]

**Q.** Which Potency does the source give for O/N=C/c1ccc(OCc2ccccc2F)c(Cl)c1 here?
**A.** inconclusive: 0.0052 µM [activator, full curve, poor fit]

**Q.** With COc1ccc(NS(=O)(=O)c2ccc(NC(=O)C(C)(C(F)(F)F)C(F)(F)F)cc2)nn1 as the molecule, how does the Potency read?
**A.** inconclusive: 35.5 µM [inhibitor, single point]

**Q.** Which Potency does the source give for COc1ccc(N2CCN(S(=O)(=O)CCNC(=O)c3cccs3)CC2)cc1 here?
**A.** inactive

**Q.** Which Potency does the source give for COc1cc(C(=O)NC2CC3CCCC(C2)N3CC(=O)Nc2ccccc2)cc(OC)c1OC (centres undefined) here?
**A.** inactive

**Q.** Which Potency does the source give for Cc1ccc(C(C)C)c(OCC(O)CN2CCN(c3ccccc3F)CC2)c1 (centres undefined) here?
**A.** inactive

**Q.** For COc1ccc(N=C2SC(CC(=O)Nc3ccccc3)C(=O)N2Cc2ccccn2)cc1 (centres undefined), which Potency is on record?
**A.** inconclusive: 10 µM [inhibitor, partial curve, poor fit]

**Q.** With CC(C)N(C(=O)COC(=O)[C@@H]1CC(O)CN1S(=O)(=O)c1ccc(C(C)(C)C)cc1)C(C)C (some centres undefined) as the molecule, how does the Potency read?
**A.** inactive
